The test concerns 5-HT, rat fundus strip. Description: 5-HT antagonism, rat fundus strip. The note with it: 10 min, read-out: 5HT rat-fundus-strip IC50. On the procedure:
5-HT antagonism, rat fundus strip
5-hydroxytryptamine (5-HT).
Rats are killed by a blow on the head and exsanguinated. The stomach fundus is removed and carefully cleaned with Krebs solution at 30° C. The fundus is then stretched over a rounded end of a plastic rod about the thickness of a pencil, whereby the longitudinal direction of the muscle fibers is visible. The fundus is halved by carefully cutting in the central line and in the direction of these fibres. Along this incision two strips with a length of 15-25 mm and with width 1.5-2.5 mm are cut, one from each half of the fundus. The mucosa is then carefully removed. A thread is attached to each end of a strip. One thread is fixed to a pin in the bottom of the organ bath and the other thread is fixed to an isotonic transducer. The strip is kept under a tone of 1.5 to 2.0 g. […] Concentration response curves to 5-HT are obtained by adding 5-HT to the bath in increasing concentrations (0.1 ml of 10^-9 M resulting in 1.0×10^-11 M in the bath, 0.2 ml of 10^-9 M resulting in 3.0×10^-11 M, 0.1 ml of 10^-8 M resulting in about 1×10^-10 M, 0.2 ml of 10^-8 M resulting in about 3×10^-10 M--0.2 ml of 10^-4 resulting in about 3×10^-6 M in the bath). […] From the control concentration effect curve the Km for 5-HT is calculated.
The results are recorded as mean percentage inhibition. […]

The structures appear in SMILES notation. A value given as a limit tells only on which side of the number the result lay.

For `OCCN1CCN(CCCN2c3ccccc3Sc3ccc(C(F)(F)F)cc32)CC1` [Fluphenazine, reference compound], the IC50 (commonly the concentration needed to halve the response being measured) was over 5 µM.

For the origin of these results see patent US4525360A, “Anti-psychotic phenylindene derivatives and acid addition salts thereof” (Kefalas A/S, priority 1982, dated 1985).
